In this experiment the target is T1, FLAG-tagged full-length METTL14 (UniProt Q9HCE5).
T1 sequence: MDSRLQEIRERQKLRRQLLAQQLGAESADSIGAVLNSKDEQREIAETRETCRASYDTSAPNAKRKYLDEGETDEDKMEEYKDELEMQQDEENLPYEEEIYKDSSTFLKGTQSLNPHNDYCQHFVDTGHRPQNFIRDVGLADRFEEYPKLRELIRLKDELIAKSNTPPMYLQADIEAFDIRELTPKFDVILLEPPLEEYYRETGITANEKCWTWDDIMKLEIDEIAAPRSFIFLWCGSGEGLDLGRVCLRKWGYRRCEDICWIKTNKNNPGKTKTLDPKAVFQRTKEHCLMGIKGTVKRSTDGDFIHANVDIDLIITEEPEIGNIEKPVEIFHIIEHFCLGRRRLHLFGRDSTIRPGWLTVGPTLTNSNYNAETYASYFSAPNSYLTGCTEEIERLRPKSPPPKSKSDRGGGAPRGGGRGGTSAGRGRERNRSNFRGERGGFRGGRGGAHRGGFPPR
Description: co-IP; anti-FLAG immunoprecipitates from HUVECs expressing FLAG-tagged full-length or truncated METTL14; Western blot for endogenous LMNA. On the technique in general: Immunoblotting shows a protein as a band on a membrane.

Protein sequences, listed by entry. Tags and fused reporters are not part of them. Residues count along the entry.
UniProt P02545, residues 1-646: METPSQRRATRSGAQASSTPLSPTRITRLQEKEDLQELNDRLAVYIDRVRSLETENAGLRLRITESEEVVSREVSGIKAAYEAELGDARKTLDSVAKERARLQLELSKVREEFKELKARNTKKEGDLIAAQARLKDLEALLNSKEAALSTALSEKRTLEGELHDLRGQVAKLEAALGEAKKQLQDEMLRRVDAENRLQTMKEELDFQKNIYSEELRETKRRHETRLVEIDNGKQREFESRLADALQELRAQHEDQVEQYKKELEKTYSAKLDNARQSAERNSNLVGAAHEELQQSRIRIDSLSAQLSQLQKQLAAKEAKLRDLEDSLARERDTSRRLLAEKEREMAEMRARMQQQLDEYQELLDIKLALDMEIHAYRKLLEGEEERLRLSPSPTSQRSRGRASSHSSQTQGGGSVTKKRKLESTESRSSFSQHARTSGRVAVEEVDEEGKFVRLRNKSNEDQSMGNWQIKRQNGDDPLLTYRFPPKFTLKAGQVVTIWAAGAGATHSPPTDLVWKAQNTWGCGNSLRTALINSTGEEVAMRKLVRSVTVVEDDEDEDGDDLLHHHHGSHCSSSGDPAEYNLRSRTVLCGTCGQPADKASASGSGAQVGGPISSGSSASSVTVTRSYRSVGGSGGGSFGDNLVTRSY

These are yes or no findings as the source states them, for the method shown. Binding seen in cells or lysates may run through a third protein. Some binding calls cover weakened binding; strength is not graded here. Sequences can lack the tags named with a protein.

Regarding “lamin A/C (LMNA) (from UniProt P02545 1-646)”, the binding entry is recorded as “binds”.

(Values after publication PMC12775674.)
